Laboratory results as given in PMC5725494, “Cell cycle-dependent phosphorylation regulates RECQL4 pathway choice and ubiquitination in DNA double-strand break repair”.
Changes are numbered by the printed parent chain. These are yes or no findings as the source states them, for the method shown. Binding seen in cells or lysates may run through a third protein. Some entries that bind do so weakly or less than the wild type. Where a sequence is shown, tags or fusion partners need not be part of it.

By UniProt entry, the sequences of proteins in these tests, tags left out.
UniProt P12956: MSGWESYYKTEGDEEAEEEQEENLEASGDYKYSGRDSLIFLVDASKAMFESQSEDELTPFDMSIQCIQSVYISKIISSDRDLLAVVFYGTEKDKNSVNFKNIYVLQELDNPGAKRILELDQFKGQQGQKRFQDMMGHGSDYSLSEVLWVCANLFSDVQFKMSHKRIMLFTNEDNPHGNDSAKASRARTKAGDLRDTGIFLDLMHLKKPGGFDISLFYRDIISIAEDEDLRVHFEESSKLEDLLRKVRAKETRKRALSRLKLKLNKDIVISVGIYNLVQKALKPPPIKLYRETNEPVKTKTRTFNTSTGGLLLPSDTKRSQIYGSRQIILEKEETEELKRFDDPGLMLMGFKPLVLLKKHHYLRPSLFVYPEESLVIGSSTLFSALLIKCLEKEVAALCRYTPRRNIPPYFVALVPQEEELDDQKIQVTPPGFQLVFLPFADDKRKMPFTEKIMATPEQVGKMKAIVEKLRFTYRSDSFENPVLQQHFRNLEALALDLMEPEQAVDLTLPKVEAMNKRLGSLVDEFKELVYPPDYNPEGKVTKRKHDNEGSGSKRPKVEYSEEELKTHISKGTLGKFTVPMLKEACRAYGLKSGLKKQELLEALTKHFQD

Columns and labels:
[1] = molecular target: T1, GFP-tagged RQ4-2A (RECQL4 Ser89Ala/Ser251Ala) (human) (UniProt O94761); assay: co-IP; GFP-TRAP beads on lysate (2 mg protein) of HEK293T cells expressing GFP-tagged RECQL4 or mutants, overnight at 4 °C; lysis buffer 2 (40 mM Tris-HCl pH 7.4, 100 mM NaCl, 2 mM MgCl2, 0.2% NP-40, 0.3% Triton) with Benzonase; cells irradiated with 10 Gy; asynchronous, or synchronised in G1 with aphidicolin and released 10 h for S/G2; Western blotting
T1 sequence: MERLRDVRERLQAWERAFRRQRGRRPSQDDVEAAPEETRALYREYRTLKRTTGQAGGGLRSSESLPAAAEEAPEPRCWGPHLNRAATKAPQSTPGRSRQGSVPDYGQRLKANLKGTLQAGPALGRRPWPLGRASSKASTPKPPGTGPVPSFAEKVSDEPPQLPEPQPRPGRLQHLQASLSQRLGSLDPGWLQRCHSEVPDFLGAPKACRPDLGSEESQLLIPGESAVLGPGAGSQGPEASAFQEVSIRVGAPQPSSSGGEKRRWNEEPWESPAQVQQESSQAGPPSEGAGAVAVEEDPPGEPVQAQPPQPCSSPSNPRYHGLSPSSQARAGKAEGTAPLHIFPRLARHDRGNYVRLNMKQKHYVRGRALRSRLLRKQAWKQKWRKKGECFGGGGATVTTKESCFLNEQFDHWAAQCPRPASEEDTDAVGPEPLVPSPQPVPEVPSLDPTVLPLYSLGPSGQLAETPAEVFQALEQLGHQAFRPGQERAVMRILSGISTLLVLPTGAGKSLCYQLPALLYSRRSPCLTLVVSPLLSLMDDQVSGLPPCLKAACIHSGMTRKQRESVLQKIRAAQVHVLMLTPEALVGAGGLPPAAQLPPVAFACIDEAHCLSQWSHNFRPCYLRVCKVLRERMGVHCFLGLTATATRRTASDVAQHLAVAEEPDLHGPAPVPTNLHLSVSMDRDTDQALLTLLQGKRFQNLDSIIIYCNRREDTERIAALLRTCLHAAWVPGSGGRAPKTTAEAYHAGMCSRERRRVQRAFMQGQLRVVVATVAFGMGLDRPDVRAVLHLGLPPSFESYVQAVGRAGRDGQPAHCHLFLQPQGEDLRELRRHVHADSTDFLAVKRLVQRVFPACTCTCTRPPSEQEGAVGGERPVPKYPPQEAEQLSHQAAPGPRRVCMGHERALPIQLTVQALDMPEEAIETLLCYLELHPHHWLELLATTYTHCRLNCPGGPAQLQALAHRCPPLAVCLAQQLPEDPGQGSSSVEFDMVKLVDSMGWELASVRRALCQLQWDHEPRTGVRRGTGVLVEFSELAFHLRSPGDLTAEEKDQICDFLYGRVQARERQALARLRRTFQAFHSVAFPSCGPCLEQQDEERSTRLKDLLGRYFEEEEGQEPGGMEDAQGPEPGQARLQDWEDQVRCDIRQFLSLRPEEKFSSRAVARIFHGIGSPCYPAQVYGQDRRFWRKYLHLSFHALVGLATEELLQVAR

[2] = molecular target: T2, GFP-tagged RQ4-2D (RECQL4 Ser89Asp/Ser251Asp) (human) (UniProt O94761); assay: as above
T2 sequence: T1 sequence with A89D, A251D

Ku70 (from UniProt P12956 1-609)
binding [1]: binds | binding [2]: binds
